The results in this text go back to paper PMC13284460, “HPV16 E2 protein possesses intrinsic helicase activity and sterically hinders E1 function through direct interaction”.

Protein sequences, listed by entry. Tags and fused reporters are not part of them. Residues count along the entry.
UniProt P03120, residues 1-245: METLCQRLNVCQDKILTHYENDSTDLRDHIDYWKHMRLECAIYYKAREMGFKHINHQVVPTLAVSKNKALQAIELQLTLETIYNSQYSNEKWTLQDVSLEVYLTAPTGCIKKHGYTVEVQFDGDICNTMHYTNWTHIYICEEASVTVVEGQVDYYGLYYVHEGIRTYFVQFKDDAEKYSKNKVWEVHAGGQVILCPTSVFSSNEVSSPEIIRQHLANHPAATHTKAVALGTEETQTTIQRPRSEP

The target of this test is T1, HPV16 E1 protein (E1-Myc) (HPV16 (human papillomavirus type 16)) (UniProt P03114).
T1 sequence: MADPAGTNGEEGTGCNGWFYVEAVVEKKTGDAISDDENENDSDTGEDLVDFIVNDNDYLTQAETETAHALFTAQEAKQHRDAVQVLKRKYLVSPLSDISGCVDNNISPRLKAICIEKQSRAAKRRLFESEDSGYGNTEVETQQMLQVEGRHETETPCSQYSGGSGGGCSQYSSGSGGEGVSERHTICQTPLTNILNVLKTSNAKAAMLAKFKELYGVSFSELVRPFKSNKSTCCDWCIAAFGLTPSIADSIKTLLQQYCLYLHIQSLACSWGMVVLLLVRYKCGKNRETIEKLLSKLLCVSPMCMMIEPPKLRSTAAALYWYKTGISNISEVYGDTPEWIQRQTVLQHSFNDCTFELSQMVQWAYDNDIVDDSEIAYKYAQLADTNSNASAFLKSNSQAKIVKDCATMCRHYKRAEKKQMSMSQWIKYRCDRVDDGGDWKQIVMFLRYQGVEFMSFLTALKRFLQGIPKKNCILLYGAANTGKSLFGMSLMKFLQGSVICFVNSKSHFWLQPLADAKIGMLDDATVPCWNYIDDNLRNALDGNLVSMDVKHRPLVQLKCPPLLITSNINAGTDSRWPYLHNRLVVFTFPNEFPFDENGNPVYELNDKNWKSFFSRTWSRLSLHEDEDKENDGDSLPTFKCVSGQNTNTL
Briefly: co-IP; purified E1-Myc and HA-tagged E2 (or GFP-HA) mixed at 1:1 molar ratio in 0.5% Triton X-100 in PBS, 4 °C, 2 h; precipitated with MYC antibody and Protein A/G beads; washed with 20 mM Tris-HCl, 300 mM NaCl, 0.1 mM EDTA, pH 8.0; Western blot with anti-Myc or anti-HA; both purified.

These are yes or no findings as the source states them, for the method shown. Some entries that bind do so weakly or less than the wild type. Tags and fused reporters may be left off the sequences shown.

Take “HPV16 E2 N-terminal truncation (residues 1-245) (from UniProt P03120 1-245) (domain or fragment)”: the binding result is “binds”.
